## Results of single-concentration screens

From ChEMBL document CHEMBL3988442, “University of Dundee, Small-Polar-MMV Screening Library” (2021).

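Growth of Mycobacterium tuberculosis over 4 days (cholesterol / DPPC medium with tyloxapol); the read-out is not stated. Concentration: 50 µM. Direction is inferred from retests: higher values go with more growth inhibition. Of about 69,000 compounds tested this way, about 370 (0.54%) reached 50% or more in at least one test.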

The filed quantity is “Percent Effect” (%).
The controls that fix the scale are not given in the record; negative values are as filed.
This is an unselected part of the compounds tested.
Two or more numbers in one place are separate tests of the same structure; such repeats can differ widely.

| structure | percent effect |
|---|---|
| `Cn1cc(CCCNC(=O)NC2CCN(CC(F)(F)F)C2=O)cn1` (stereo not shown) | -12.66 |
| `CC[C@H]1N(CC2CCOCC2)CCC[C@]12CCC(=O)N2.O=C(O)C(F)(F)F` | 0.3632 |
| `CCCc1nnsc1C(=O)NCC(O)c1ccc(SC)cc1` (stereo not shown) | -7.927 |
| `O=C(O)C(F)(F)F.[H][C@@]12CCN(C3CCC3)C[C@]1(COc1nccc(C)n1)CCO2` | -40.07 |
| `Cc1sc(C(=O)O)cc1S(=O)(=O)Nc1c(F)cccc1-n1cccn1` | 1.182 and -0.412 |
| `c1ccc2cc(OCCN3CCOC(Cn4cncn4)C3)ccc2c1` (stereo not shown) | -11.22 |
| `COCC1CN(Cc2ccc(C)o2)Cc2nnn(C)c21.O=C(O)C(F)(F)F` (stereo not shown) | -25.31 |
| `CCC(NC(=O)c1cnc(-c2cccnc2)nc1)c1ccnn1C` (stereo not shown) | -11.76 |
| `O=C(O)C(F)(F)F.O=C(O)C(F)(F)F.[H][C@@]12C[C@@H](Oc3cncnc3)CN1CCN(C(=O)c1cccnc1)C2` | -4.581 |
| `COc1ncccc1C(=O)N1CC(c2nc(-c3ccco3)no2)C1` | -1.339 |
| `Cc1nc2cc(=O)[nH]n2c(C)c1CC(=O)Nc1cn[nH]c1` | -0.6393 |
| `Cn1ccc(C(=O)N2CCC(Cc3cnc4[nH]ccc4c3)CC2)n1` | -20.96 |
| `[H][C@@]12COC[C@]1([H])[C@H](NC(=O)C1CCC1)CN2Cc1cccc(C)n1` | 5.022 and -2.055 |
| `c1ncc2c(n1)CN(Cc1nc(-c3ccoc3)no1)CC2` | -0.3799 |
| `Cc1ccc(C(C)(O)CNC(=O)NCCc2ccc3c(c2)CCO3)o1` (stereo not shown) | -27.82 |
| `Cn1nc(Cn2cccn2)c2c1CN(C1CCOC1)C2.O=C(O)C(F)(F)F` (stereo not shown) | -17.69 |
| `Cc1ccc(C(=O)N2CCOCC2)cc1NCc1ccsc1` | 6.93 |
| `CCCn1nc(C(=O)N(C)Cc2nnc3n2CCC3)ccc1=O` | -3.546 and 11.43 |
| `CCn1cc(CN2CCCN(C(=O)c3ccco3)CC2)cn1` | 17.8 |
| `Cc1sc2nc(C(F)(F)F)nc(N3CCC(NS(C)(=O)=O)CC3)c2c1C` | 13.43 |
| `CC(C)Cc1cc(NC(=O)c2ccc[nH]2)n(C)n1` | -11.21 |
| `COCC(=O)N1CCn2c(CN3CCN(C)CC3)cnc2C1.O=C(O)C(F)(F)F.O=C(O)C(F)(F)F` | -6.319 |
| `CN(CCc1ccncc1)CC1CCCN1c1cccnn1` (stereo not shown) | -24.07 |
| `CN(C)c1ncc(-c2cc(C(=O)O)n(CC3CC3)c2)cn1` | 4.506 and 6.318 |
| `CN(Cc1cccnc1)CC1CCCN1c1cccnn1` (stereo not shown) | -27.36 |
| `Cc1ccc(C)c(OCc2cc(C(=O)N(C)Cc3cnn(C)c3)no2)c1` | 11.39 and 18.01 |
| `O=C(NCc1ccccc1)c1nnc2ccc(N3CCOCC3)cc2n1` | -26.04 |
| `Cc1noc(C)c1CC(=O)N1CCCC(Cn2ccnc2C)C1` (stereo not shown) | -0.3183 |
| `CC(C)N1CCCC1c1cc(CO)[nH]n1.O=CO` (stereo not shown) | -4.6 |
| `Cc1cc(C(=O)NC(C)c2nnn[nH]2)c2cccc(C)c2n1` (stereo not shown) | -1.605 |
| `Cc1cc(C)c2cc(CNCCCN3CCOCC3)c(=O)[nH]c2c1` | -7.808 |
| `CN(Cc1ccco1)C(=O)CN1CCN(C)c2ccccc2C1` | -8.417 |
| `N#Cc1cc2c(nc1O)CCCCC2` | -15.61 |
| `Cc1nn(C)c2nc(N(CCN(C)C)CC3CCCO3)sc12` (stereo not shown) | -33.22 |
| `COc1cncc(N2CCN(Cc3ccncc3Cl)CC2)n1` | -8.892 |
| `Cc1ccc2oc(=O)n(CCC(=O)N3CCC4(CN(C)C(=O)O4)C3)c2c1` (stereo not shown) | -24.36 |
| `Cc1ncsc1C(=O)OCCN1CCCCCC1=O` | 8.553 |
| `[H][C@@]12CN(C(=O)N3CCOCC3)C[C@]1([H])OCCN2C(=O)c1ccco1` | -17.64 |
| `CN(C)C(CNCc1nc(-c2ccsc2)no1)c1cccc(F)c1` (stereo not shown) | 16.57 |
| `CN1CCCc2ccc(S(=O)(=O)NC(=O)C3CC=CC3)cc21` | -16.56 |
| `O=C(NCC1(C(=O)O)CCC1)c1nnn(-c2ccc(F)cc2)c1C1CC1` | -25.07 |
| `CC(C)(C)n1nnnc1CN(Cc1ccccc1)Cc1ccc(Cl)cc1` | 9.03 |
| `COc1ccc(F)cc1-c1nc2c([nH]1)c(C1CC1)nn2C` | 6.838 |
| `O=C(O)C(F)(F)F.[H][C@@]12COC[C@]1(COCc1cccnc1)CN(C(=O)c1ccccc1C)C2` | -21.63 and 6.482 |
| `CN1CCOC(C(=O)N2CCC3(CCCCC3)C2)C1` (stereo not shown) | 13.09 |
| `CC(=O)N1N=C(COc2ccc3c(c2)OCO3)OC1c1cccc(Cl)c1` (stereo not shown) | -26.91 |
| `Cc1nc(N2CC[C@@H](NC(=O)c3cnccn3)[C@H](O)C2)c2ccsc2n1` | 12.97 |
| `CN1CCN(Cc2cccnc2)C(=O)C12CCN(Cc1ccco1)CC2.O=C(O)C(F)(F)F.O=C(O)C(F)(F)F.O=C(O)C(F)(F)F` | -4.567 |
| `CCc1ccc(CN2CCN(c3ccc(C#N)cc3)C(=O)C2)nc1` | 2.816 |
| `CC(C)NC(=O)CNC(C)c1c(F)cccc1Cl` (stereo not shown) | 1.603 |
| `CN(Cc1ccsc1)C(=O)Nc1ccc(N2CCCC2)nc1` | -1.57 |
| `O=C(O)C(c1ccc2c(c1)OCO2)N1CCCC1` (stereo not shown) | -3.097 and -5.274 |
| `COCC(=O)N1CCc2[nH]c(=O)ccc2C1` | 5.412 |
| `COCCNc1ccc(CNC(=O)Nc2cn[nH]c2)cc1` | 1.651 |
| `CCOc1ccccc1C(=O)Nn1c(C)cc(C)cc1=O` | -3.166 |
| `N#Cc1cccc(NC(=O)N[C@H](CO)c2ccccc2)c1` | 28.79 |
| `CCCC(=O)N1CCC(Nc2nc(O)cc(-c3ccsc3)n2)CC1` | 3.803 and 7.231 |
| `COCCN1CCOCC2(CCCN(Cc3ccc(C)o3)C2)C1.O=C(O)C(F)(F)F.O=C(O)C(F)(F)F` (stereo not shown) | -0.09725 |
| `O=C(c1ccc[nH]1)N1CCCn2c(nnc2Cn2cccn2)C1` | -13.45 |
| `Cc1cnn(CC2CCCN2C(=O)c2ccc3nnc(C)n3c2)c1` (stereo not shown) | -14.43 |
| `CSCC[C@H](NC(C)=O)c1nc(CCc2ccccc2)n[nH]1` | 0.6708 |
| `CCc1cc(CNC(=O)Nc2cc(F)cc(N3CCCC3)c2)on1` | 0.522 |
| `Cc1nn(C)c(C)c1CN(C)C(=O)c1cc(C(F)(F)F)n(C)n1` | 13.27 |
| `Cc1nc(CCNC2CCN(Cc3ccccc3)C2)sc1C` (stereo not shown) | -10.19 |
| `O=C(NCc1cccc(N2CC=CC2)c1)NC1CC1` | -19.79 and 0.8713 |
| `O=C(Nc1cc(C(F)(F)F)c[nH]c1=O)N1CCOCC1` | -0.4276 |
| `Cc1cc(-c2cnc(N3CCCC(C)C3)nc2-c2cccnc2C)on1.Cl` (stereo not shown) | -11.4 |
| `Cc1ccc2c(ccn2CCC(=O)N2CCC(C(N)=O)CC2)c1` | 2.11 |
| `COc1ccc(C(CO)NC(=O)Nc2cccc(C(C)=O)c2)cc1` (stereo not shown) | 9.116 and -6.4 |
| `O=C(Nc1ccc(CN2CCOCC2)cc1)c1nccn2ccnc12` | -25.36 |
| `CN(Cc1ccsc1)C(=O)Nc1ccc(S(=O)(=O)N(C)C)cc1` | -21.43 |
| `O=C(O)CCc1cn(C2CCN(c3ncccc3Cl)CC2)nn1` | 3.956 |
| `Cn1nccc1-c1nnn2c1COCC(CNCC1CC1)C2.O=C(O)C(F)(F)F.O=C(O)C(F)(F)F` (stereo not shown) | 3.167 |
| `CN1[C@H](CO)C[C@H](CNCc2ccc(CO)o2)[C@@H]1c1ccccc1F` | 22.78 |
| `Cl.[H][C@@]12CCCCN[C@]1([H])[C@@H](c1ccccc1)CCN2S(=O)(=O)N1CCCC1` | -16.95 |
| `CC(=O)N1CCC2(C=C(C(=O)NC3CC3)c3ccccc32)CC1` | -0.09545 |
| `Cc1ccccc1C1(O)CCN(C(=O)CCc2cn3ccccc3n2)C1` (stereo not shown) | -24.65 |
| `COc1ccc(OCCN(C)S(=O)(=O)c2cnn(C)c2)cc1` | -5.876 |
| `CS(=O)(=O)c1cc(Cl)cnc1C1CCCN(C(=O)C2CCOCC2)C1` (stereo not shown) | 0.4693 and -5.675 |
| `Cc1nc(=O)c2ccccc2n1C1=CCN(CC(=O)N2CCCC2)CC1` | 13.24 and 2.523 |

Once more, the final 7:

structure,percent effect
CN1[C@H](CO)C[C@H](CNCc2ccc(CO)o2)[C@@H]1c1ccccc1F,22.78
Cl.[H][C@@]12CCCCN[C@]1([H])[C@@H](c1ccccc1)CCN2S(=O)(=O)N1CCCC1,-16.95
CC(=O)N1CCC2(C=C(C(=O)NC3CC3)c3ccccc32)CC1,-0.09545
Cc1ccccc1C1(O)CCN(C(=O)CCc2cn3ccccc3n2)C1 (stereo not shown),-24.65
COc1ccc(OCCN(C)S(=O)(=O)c2cnn(C)c2)cc1,-5.876
CS(=O)(=O)c1cc(Cl)cnc1C1CCCN(C(=O)C2CCOCC2)C1 (stereo not shown),0.4693 and -5.675
Cc1nc(=O)c2ccccc2n1C1=CCN(CC(=O)N2CCCC2)CC1,13.24 and 2.523